Measured values: patent US20250283871A1, “COMPOSITIONS AND METHODS FOR MODULATING THE INTERACTION BETWEEN SS18-SSX FUSION ONCOPROTEIN AND NUCLEOSOMES” (Dana-Farber Cancer Institute, Inc., priority 2020, published 2025)

Tested on: BAF complex subunits and histone proteins
Experiment: Mass spectrometry proteomics of purified HA-SS18 WT and HA-SS18-SSX1 complexes (Tables 5A-5E)
Design: species or system human
Conditions: for Total (total peptides) / Unique (unique peptides): HA-SS18WT_CHR_peptides: protein identified in HA-SS18 WT BAF complex purification from nuclease-treated solubilized chromatin (CHR)
[1] = HA-SS18SSX1_NE_peptides: protein co-purified with HA-SS18-SSX1 BAF complexes from soluble nuclear extract (NE), HEK-293T cells
[2] = HA-SS18WT_NE_peptides: proteins co-purified with HA-SS18 WT from nuclear extract (NE), HEK-293T

B1: ORC1 (protein, UniProt Q13415 1-861, looked up)
Origin recognition complex …: MAHYPTRLKTRKTYSWVGRPLLDRKLHYQTYREMCVKTEGCSTEIHIQIGQFVLIEGDDDENPYVAKLLELFEDDSDPPPKKRARVQWFVRFCEVPACKRHLLGRKPGAQEIFWYDYPACDSNINAETIIGLVRVIPLAPKDVVPTNLKNEKTLFVKLSWNEKKFRPLSSELFAELNKPQESAAKCQKPVRAKSKSAESPSWTPAEHVAKRIESRHSASKSRQTPTHPLTPRARKRLELGNLGNPQMSQQTSCASLDSPGRIKRKVAFSEITSPSKRSQPDKLQTLSPALKAPEKTRETGLSYTEDDKKASPEHRIILRTRIAASKTIDIREERTLTPISGGQRSSVVPSVILKPENIKKRDAKEAKAQNEATSTPHRIRRKSSVLTMNRIRQQLRFLGNSKSDQEEKEILPAAEISDSSSDEEEASTPPLPRRAPRTVSRNLRSSLKSSLHTLTKVPKKSLKPRTPRCAAPQIRSRSLAAQEPASVLEEARLRLHVSAVPESLPCREQEFQDIYNFVESKLLDHTGGCMYISGVPGTGKTATVHEVIRCLQQAAQANDVPPFQYIEVNGMKLTEPHQVYVQILQKLTGQKATANHAAELLAKQFCTRGSPQETTVLLVDELDLLWTHKQDIMYNLFDWPTHKEARLVVLAIANTMDLPERIMMNRVSSRLGLTRMCFQPYTYSQLQQILRSRLKHLKAFEDDAIQLVARKVAALSGDARRCLDICRRATEICEFSQQKPDSPGLVTIAHSMEAVDEMFSSSYITAIKNSSVLEQSFLRAILAEFRRSGLEEATFQQIYSQHVALCRMEGLPYPTMSETMAVCSHLGSCRLLLVEPSRNDLLLRVRLNVSQDDVLYALKDE
Total (peptides) [1]: 1 | Unique (peptides) [1]: 1 | Total (total peptides) (HEK-293T): 1 | Unique (unique peptides) (HEK-293T): 1

B2: NCBP1 (protein, UniProt Q09161 1-790, looked up)
Nuclear cap-binding protein …: MSRRRHSDENDGGQPHKRRKTSDANETEDHLESLICKVGEKSACSLESNLEGLAGVLEADLPNYKSKILRLLCTVARLLPEKLTIYTTLVGLLNARNYNFGGEFVEAMIRQLKESLKANNYNEAVYLVRFLSDLVNCHVIAAPSMVAMFENFVSVTQEEDVPQVRRDWYVYAFLSSLPWVGKELYEKKDAEMDRIFANTESYLKRRQKTHVPMLQVWTADKPHPQEEYLDCLWAQIQKLKKDRWQERHILRPYLAFDSILCEALQHNLPPFTPPPHTEDSVYPMPRVIFRMFDYTDDPEGPVMPGSHSVERFVIEENLHCIIKSHWKERKTCAAQLVSYPGKNKIPLNYHIVEVIFAELFQLPAPPHIDVMYTTLLIELCKLQPGSLPQVLAQATEMLYMRLDTMNTTCVDRFINWFSHHLSNFQFRWSWEDWSDCLSQDPESPKPKFVREVLEKCMRLSYHQRILDIVPPTFSALCPANPTCIYKYGDESSNSLPGHSVALCLAVAFKSKATNDEIFSILKDVPNPNQDDDDDEGFSFNPLKIEVFVQTLLHLAAKSFSHSFSALAKFHEVFKTLAESDEGKLHVLRVMFEVWRNHPQMIAVLVDKMIRTQIVDCAAVANWIFSSELSRDFTRLFVWEILHSTIRKMNKHVLKIQKELEEAKEKLARQHKRRSDDDDRSSDRKDGVLEEQIERLQEKVESAQSEQKNLFLVIFQRFIMILTEHLVRCETDGTSVLTPWYKNCIERLQQIFLQHHQIIQQYMVTLENLLFTAELDPHILAVFQQFCALQA
Total (peptides) [1]: 1 | Unique (peptides) [1]: 1 | Total (total peptides) (HEK-293T): 1 | Unique (unique peptides) (HEK-293T): 1 | Total (peptides) [2]: 1 | Unique (peptides) [2]: 1

B3: YTHDF2 (protein, UniProt Q9Y5A9 2-579, looked up)
YTH domain-containing family …: SASSLLEQRPKGQGNKVQNGSVHQKDGLNDDDFEPYLSPQARPNNAYTAMSDSYLPSYYSPSIGFSYSLGEAAWSTGGDTAMPYLTSYGQLSNGEPHFLPDAMFGQPGALGSTPFLGQHGFNFFPSGIDFSAWGNNSSQGQSTQSSGYSSNYAYAPSSLGGAMIDGQSAFANETLNKAPGMNTIDQGMAALKLGSTEVASNVPKVVGSAVGSGSITSNIVASNSLPPATIAPPKPASWADIASKPAKQQPKLKTKNGIAGSSLPPPPIKHNMDIGTWDNKGPVAKAPSQALVQNIGQPTQGSPQPVGQQANNSPPVAQASVGQQTQPLPPPPPQPAQLSVQQQAAQPTRWVAPRNRGSGFGHNGVDGNGVGQSQAGSGSTPSEPHPVLEKLRSINNYNPKDFDWNLKHGRVFIIKSYSEDDIHRSIKYNIWCSTEHGNKRLDAAYRSMNGKGPVYLLFSVNGSGHFCGVAEMKSAVDYNTCAGVWSQDKWKGRFDVRWIFVKDVPNSQLRHIRLENNENKPVTNSRDTQEVPLEKAKQVLKIIASYKHTTSIFDDFSHYEKRQEEEESVKKERQGRGK
Total (peptides) [1]: 1 | Unique (peptides) [1]: 1

B4: PIGK (protein, UniProt Q92643 28-395, looked up)
GPI-anchor transamidase: SHIEDQAEQFFRSGHTNNWAVLVCTSRFWFNYRHVANTLSVYRSVKRLGIPDSHIVLMLADDMACNPRNPKPATVFSHKNMELNVYGDDVEVDYRSYEVTVENFLRVLTGRIPPSTPRSKRLLSDDRSNILIYMTGHGGNGFLKFQDSEEITNIELADAFEQMWQKRRYNELLFIIDTCQGASMYERFYSPNIMALASSQVGEDSLSHQPDPAIGVHLMDRYTFYVLEFLEEINPASQTNMNDLFQVCPKSLCVSTPGHRTDLFQRDPKNVLITDFFGSVRKVEITTETIKLQQDSEIMESSYKEDQMDEKLMEPLKYAEQLPVAQIIHQKPKLKDWHPPGGFILGLWALIIMVFFKTYGIKHMKFIF
Total (peptides) [1]: 1 | Unique (peptides) [1]: 1 | Total (peptides) [2]: 2 | Unique (peptides) [2]: 2

B5: MED23 (protein, UniProt Q9ULK4 1-1368, looked up)
Mediator of RNA polymerase II …: METQLQSIFEEVVKTEVIEEAFPGMFMDTPEDEKTKLISCLGAFRQFWGGLSQESHEQCIQWIVKFIHGQHSPKRISFLYDCLAMAVETGLLPPRLVCESLINSDTLEWERTQLWALTFKLVRKIIGGVDYKGVRDLLKVILEKILTIPNTVSSAVVQQLLAAREVIAYILERNACLLPAYFAVTEIRKLYPEGKLPHWLLGNLVSDFVDTFRPTARINSICGRCSLLPVVNNSGAICNSWKLDPATLRFPLKGLLPYDKDLFEPQTALLRYVLEQPYSRDMVCNMLGLNKQHKQRCPVLEDQLVDLVVYAMERSETEEKFDDGGTSQLLWQHLSSQLIFFVLFQFASFPHMVLSLHQKLAGRGLIKGRDHLMWVLLQFISGSIQKNALADFLPVMKLFDLLYPEKEYIPVPDINKPQSTHAFAMTCIWIHLNRKAQNDNSKLQIPIPHSLRLHHEFLQQSLRNKSLQMNDYKIALLCNAYSTNSECFTLPMGALVETIYGNGIMRIPLPGTNCMASGSITPLPMNLLDSLTVHAKMSLIHSIATRVIKLAHAKSSVALAPALVETYSRLLVYMEIESLGIKGFISQLLPTVFKSHAWGILHTLLEMFSYRMHHIQPHYRVQLLSHLHTLAAVAQTNQNQLHLCVESTALRLITALGSSEVQPQFTRFLSDPKTVLSAESEELNRALILTLARATHVTDFFTGSDSIQGTWCKDILQTIMSFTPHNWASHTLSCFPGPLQAFFKQNNVPQESRFNLKKNVEEEYRKWKSMSNENDIITHFSMQGSPPLFLCLLWKMLLETDHINQIGYRVLERIGARALVAHVRTFADFLVYEFSTSAGGQQLNKCIEILNDMVWKYNIVTLDRLILCLAMRSHEGNEAQVCYFIIQLLLLKPNDFRNRVSDFVKENSPEHWLQNDWHTKHMNYHKKYPEKLYFEGLAEQVDPPVQIQSPYLPIYFGNVCLRFLPVFDIVIHRFLELLPVSKSLETLLDHLGGLYKFHDRPVTYLYNTLHYYEMHLRDRAFLKRKLVHAIIGSLKDNRPQGWCLSDTYLKCAMNAREENPWVPDDTYYCRLIGRLVDTMAGKSPGPFPNCDWRFNEFPNPAAHALHVTCVELMALAVSGKEVGNALLNVVLKSQPLVPRENITAWMNAIGLIITALPEPYWIVLHDRIVSVISSPSLTSETEWVGYPFRLFDFTACHQSYSEMSCSYTLALAHAVWHHSSIGQLSLIPKFLTEVLLPIVKTEFQLLYVYHLVGPFLQRFQQERTRCMIEIGVAFYDMLLNVDQCSTHLNYMDPICDFLYHMKYMFTGDSVKEQVEKIICNLKPALKLRLRFITHISKMEPAAVPPQAMNSGSPAPQSNQVPVSLPVTQ
Total (peptides) [1]: 1 | Unique (peptides) [1]: 1 | Total (peptides) [2]: 2 | Unique (peptides) [2]: 2

B6: GGT7 (protein, UniProt Q9UJ14 1-472; Q9UJ14 473-662, looked up)
Glutathione hydrolase 7 heavy …: MAAENEASQESALGAYSPVDYMSITSFPRLPEDEPAPAAPLRGRKDEDAFLGDPDTDPDSFLKSARLQRLPSSSSEMGSQDGSPLRETRKDPFSAAAAECSCRQDGLTVIVTACLTFATGVTVALVMQIYFGDPQIFQQGAVVTDAARCTSLGIEVLSKQGSSVDAAVAAALCLGIVAPHSSGLGGGGVMLVHDIRRNESHLIDFRESAPGALREETLQRSWETKPGLLVGVPGMVKGLHEAHQLYGRLPWSQVLAFAAAVAQDGFNVTHDLARALAEQLPPNMSERFRETFLPSGRPPLPGSLLHRPDLAEVLDVLGTSGPAAFYAGGNLTLEMVAEAQHAGGVITEEDFSNYSALVEKPVCGVYRGHLVLSPPPPHTGPALISALNILEGFNLTSLVSREQALHWVAETLKIALALASRLGDPVYDSTITESMDDMLSKVEAAYLRGHINDSQAAPAPLLPVYELDGAPT
Glutathione hydrolase 7 light …: AAQVLIMGPDDFIVAMVSSLNQPFGSGLITPSGILLNSQMLDFSWPNRTANHSAPSLENSVQPGKRPLSFLLPTVVRPAEGLCGTYLALGANGAARGLSGLTQVLLNVLTLNRNLSDSLARGRLHPDLQSNLLQVDSEFTEEEIEFLEARGHHVEKVDVLSWVHGSRRTNNFIIAVKDPRSPDAAGATIL
Total (peptides) [1]: 1 | Unique (peptides) [1]: 1

B7: TOR1A (protein, UniProt O14656 21-332, looked up)
Torsin-1A: VEPISLGLALAGVLTGYIYPRLYCLFAECCGQKRSLSREALQKDLDDNLFGQHLAKKIILNAVFGFINNPKPKKPLTLSLHGWTGTGKNFVSKIIAENIYEGGLNSDYVHLFVATLHFPHASNITLYKDQLQLWIRGNVSACARSIFIFDEMDKMHAGLIDAIKPFLDYYDLVDGVSYQKAMFIFLSNAGAERITDVALDFWRSGKQREDIKLKDIEHALSVSVFNNKNSGFWHSSLIDRNLIDYFVPFLPLEYKHLKMCIRVEMQSRGYEIDEDIVSRVAEEMTFFPKEERVFSDKGCKTVFTKLDYYYDD
Total (peptides) [1]: 1 | Unique (peptides) [1]: 1

B8: DHCR24 (protein, UniProt Q15392 23-516, looked up)
Delta(24)-sterol reductase: LEFVLIHQRWVFVCLFLLPLSLIFDIYYYVRAWVVFKLSSAPRLHEQRVRDIQKQVREWKEQGSKTFMCTGRPGWLTVSLRVGKYKKTHKNIMINLMDILEVDTKKQIVRVEPLVTMGQVTALLTSIGWTLPVLPELDDLTVGGLIMGTGIESSSHKYGLFQHICTAYELVLADGSFVRCTPSENSDLFYAVPWSCGTLGFLVAAEIRIIPAKKYVKLRFEPVRGLEAICAKFTHESQRQENHFVEGLLYSLDEAVIMTGVMTDEAEPSKLNSIGNYYKPWFFKHVENYLKTNREGLEYIPLRHYYHRHTRSIFWELQDIIPFGNNPIFRYLFGWMVPPKISLLKLTQGETLRKLYEQHHVVQDMLVPMKCLQQALHTFQNDIHVYPIWLCPFILPSQPGLVHPKGNEAELYIDIGAYGEPRVKHFEARSCMRQLEKFVRSVHGFQMLYADCYMNREEFWEMFDGSLYHKLREKLGCQDAFPEVYDKICKAARH
Total (peptides) [1]: 1 | Unique (peptides) [1]: 1 | Total (peptides) [2]: 1 | Unique (peptides) [2]: 1
